12 molecules from PubChem BioAssay AID248 (DTP/NCI, 2004) can be followed below.

The subject of this test is L1210 leukemia ip in BDF1 mice, survival T/C. Nature of the test: NCI In Vivo Anticancer Drug Screen. Data for tumor model L1210 Leukemia (intraperitoneal) in B6D2F1 (BDF1) mice. The following applies: higher T/C = longer survival.
Setting [1] is: T/C endpoint: mean survival time, dose: 50.0 mg/kg/injection, schedule: Q01DX010 (sc), vehicle: steroid suspending solution.
Where [2] appears, read: T/C endpoint: mean survival time, dose: 200.0 mg/kg/injection, schedule: Q01DX001 (ip), vehicle: saline.
The mark [3] stands for this setting: T/C endpoint: mean survival time, dose: 400.0 mg/kg/injection, schedule: Q01DX001 (ip), vehicle: saline.
Where [4] appears, read: T/C endpoint: mean survival time, dose: 400.0 mg/kg/injection, schedule: Q01DX009 (ip), vehicle: saline with Tween-80.
Where [5] appears, read: T/C endpoint: mean survival time, dose: 200.0 mg/kg/injection, schedule: Q01DX009 (ip), vehicle: Klucel (hydroxypropylcellulose) (HPC).
Setting [6] is: T/C endpoint: mean survival time, dose: 400.0 mg/kg/injection, schedule: Q01DX009 (ip), vehicle: Klucel (hydroxypropylcellulose) (HPC).
Setting [7] is: T/C endpoint: mean survival time, dose: 100.0 mg/kg/injection, schedule: Q01DX009 (ip), vehicle: Klucel (hydroxypropylcellulose) (HPC).
[8] abbreviates: T/C endpoint: mean survival time, dose: 400.0 mg/kg/injection, schedule: Q04DX003 (ip), vehicle: saline.

The list does not hold the whole screen: it is rich in T/C values a quarter to a half above the control, in often repeated tests (any T/C) and in doses without a T/C. Further doses and runs are listed elsewhere. T/C gives the treated animals as a percentage of the vehicle group. Some doses have a count of surviving animals in place of a T/C: the source holds a T/C of zero for them, seemingly a mark for toxic or unscored doses. Some doses without a T/C left all or most animals alive at the check, yet need not have been tolerated: the source hardly ever lists a survival T/C far under the control, and the zero likely stands for such cases as well. Counts of survivors are from the toxicity check (mostly the fifth day) where no day follows; animals may have died later. Schedules are NCI's codes, taken here to give the interval after Q, in days (D) or hours (H), and the number of doses after X. Some schedules carry Z or #; the key to these is not given. Some entries were tested several times; the results are listed from low to high. Some structures stand for samples that the source files as different forms (salt, stereo form or complex); doses refer to the form tested. For survival time, this PubChem deposit counts one and a half times the control or more as active, and values a quarter to a half above the control carry no call in these data; other NCI protocols may use other cut-offs. Some T/C values carry the count of animals alive at the toxicity check (mostly the fifth day); where none is given, no animal had died by that day. Counts like (3×) stand for listed records that agree.

Regarding `C[C@]12C=CC(=O)C=C1CC[C@@H]1[C@@H]2C(=O)C[C@@]2(C)[C@H]1CC[C@]2(O)C(=O)CO`, the T/C (T/C endpoint: mean survival time, dose: 12.5 mg/kg/injection, schedule: Q01DX010 (sc), vehicle: steroid suspending solution) is 94, 99, 100, 101 % of control; the T/C (T/C endpoint: mean survival time, dose: 25.0 mg/kg/injection, schedule: Q01DX010 (sc), vehicle: steroid suspending solution) was 92, 94, 100, 104 % of control; the T/C under setting [1] was 99, 100 [5 of 6 alive], 104 % of control; the T/C (T/C endpoint: mean survival time, dose: 100.0 mg/kg/injection, schedule: Q01DX010 (sc), vehicle: steroid suspending solution) was 87, 90 [5 of 6 alive], 96, 105 % of control; the T/C (T/C endpoint: mean survival time, dose: 200.0 mg/kg/injection, schedule: Q01DX010 (sc), vehicle: steroid suspending solution) is 92, 92 [5 of 6 alive], 94, 98 % of control; the T/C (T/C endpoint: median survival time, dose: 25.0 mg/kg/injection, schedule: Q01DX009 (ip), vehicle: saline) is 100 (3×) and 105 % of control [5 of 6 alive]. In addition, the T/C reads like this: (T/C endpoint: median survival time, dose: 50.0 mg/kg/injection, schedule: Q01DX009 (ip), vehicle: saline) 100 (2×), 106, 111 % of control; (T/C endpoint: median survival time, dose: 100.0 mg/kg/injection, schedule: Q01DX009 (ip), vehicle: saline) 100 [5 of 6 alive], 105 (2×), 106 % of control; (T/C endpoint: median survival time, dose: 200.0 mg/kg/injection, schedule: Q01DX009 (ip), vehicle: saline) 87 [5 of 6 alive], 110, 111, 112 % of control. Also, the survivor count runs as follows: under setting [1], 5 of 6; (T/C endpoint: mean survival time, dose: 100.0 mg/kg/injection, schedule: Q01DX Z (sc), vehicle: steroid suspending solution) 4 of 6; (T/C endpoint: mean survival time, dose: 200.0 mg/kg/injection, schedule: Q01DX Z (sc), vehicle: steroid suspending solution) 2 of 6; (T/C endpoint: mean survival time, dose: 400.0 mg/kg/injection, schedule: Q01DX Z (sc), vehicle: steroid suspending solution) 4 of 6 and 6 of 6; (T/C endpoint: median survival time, dose: 300.0 mg/kg/injection, schedule: Q01DX009 (ip), vehicle: water) 8 of 8; (T/C endpoint: median survival time, dose: 500.0 mg/kg/injection, schedule: Q01DX009 (ip), vehicle: water) 7 of 8. Moreover, the survivor count (T/C endpoint: median survival time, dose: 800.0 mg/kg/injection, schedule: Q01DX009 (ip), vehicle: water) is given as 3 of 8; the survivor count (T/C endpoint: median survival time, dose: 833.0 mg/kg/injection, schedule: Q01DX009 (ip), vehicle: water) is recorded as 6 of 8; the survivor count (T/C endpoint: median survival time, dose: 1388.0 mg/kg/injection, schedule: Q01DX009 (ip), vehicle: water) is on record as 7 of 8.

For `Cc1cccc2cc3c(ccc4ccccc43)c[n+]12`, the survivor count is listed as 0 of 6 (T/C endpoint: mean survival time, dose: 16.0 mg/kg/injection, schedule: Q01DX015 (ip), vehicle: carboxymethylcellulose (CMC)); 5 of 6 (T/C endpoint: mean survival time, dose: 25.0 mg/kg/injection, schedule: Q01DX009 (ip), vehicle: saline with Tween-80); 0 of 6 (T/C endpoint: mean survival time, dose: 50.0 mg/kg/injection, schedule: Q01DX001 (ip), vehicle: saline); 0 of 6 (T/C endpoint: mean survival time, dose: 70.0 mg/kg/injection, schedule: Q04DX003 (ip), vehicle: saline); 0 of 6 (T/C endpoint: mean survival time, dose: 100.0 mg/kg/injection, schedule: Q01DX001 (ip), vehicle: saline); 0 of 6 (T/C endpoint: mean survival time, dose: 110.0 mg/kg/injection, schedule: Q04DX003 (ip), vehicle: saline). Further, the survivor count (T/C endpoint: mean survival time, dose: 160.0 mg/kg/injection, schedule: Q04DX003 (ip), vehicle: saline) is 0 of 6; the survivor count under setting [2] is 0 of 6; the survivor count under setting [3] is 0 of 6.

In the case of `Clc1nnc(Cl)s1`, the survivor count is 3 of 6 (T/C endpoint: mean survival time, dose: 100.0 mg/kg/injection, schedule: Q01DX009 (ip), vehicle: saline with Tween-80); 0 of 6 (T/C endpoint: mean survival time, dose: 200.0 mg/kg/injection, schedule: Q01DX009 (ip), vehicle: saline with Tween-80); 0 of 6 under setting [4].

For the molecule `O=C(Nc1ccc(C(Cl)(Cl)Cl)cc1)Nc1cc(Cl)ccc1Cl`, the survivor count under setting [5] is 3 of 6 and the survivor count under setting [6] is given as 0 of 6.

`Cc1ccc(C(O)C(=O)O)c(C)c1` (stereo unspecified): where the note is “T/C endpoint: mean survival time, dose: 400.0 mg/kg/injection, schedule: Q04DX002 (ip), vehicle: saline with Tween-80”, the survivor count is reported as 2 of 3.

Turning to `CCOC(=O)C(=Cc1ccc(Cl)cc1)C(=O)OCC`, the survivor count under setting [7] is reported as 6 of 6, the survivor count under setting [5] is 4 of 6 and the survivor count under setting [6] is 0 of 6.

Take `CC(=O)C1C(=O)C(=O)OC1C` (stereo unspecified): for the setting “T/C endpoint: mean survival time, dose: 400.0 mg/kg/injection, schedule: Q04DX003 (ip), vehicle: alcohol”, the survivor count is listed as 0 of 6.

Regarding `COc1ccc2c3csc4ccccc4c-3nc2c1`, the survivor count is, setting by setting: (T/C endpoint: mean survival time, dose: 50.0 mg/kg/injection, schedule: Q01DX009 (ip), vehicle: saline) 3 of 6; under setting [7], 0 of 6.

As for `Nc1ncnc2c1ncn2C1OC(CO)C(O)C1O` (stereo unspecified), the survivor count by setting is: (T/C endpoint: mean survival time, dose: 60.0 mg/kg/injection, schedule: Q#A X012 (ip), vehicle: methylcellulose (MC)) 3 of 7; under setting [2], 0 of 3; under setting [3], 0 of 3; (T/C endpoint: mean survival time, dose: 1200.0 mg/kg/injection, schedule: Q01DX009 (ip), vehicle: saline) 1 of 6. For the same molecule, the T/C (T/C endpoint: mean survival time, dose: 110.0 mg/kg/injection, schedule: Q03HX024 (ip), vehicle: saline with Tween-80) was 133 % of control; the T/C (T/C endpoint: mean survival time, dose: 160.0 mg/kg/injection, schedule: Q03HX024 (ip), vehicle: saline with Tween-80) was 135 % of control; the T/C (T/C endpoint: mean survival time, dose: 200.0 mg/kg/injection, schedule: Q03HX024 (ip), vehicle: saline with Tween-80) was 138 % of control; the T/C (T/C endpoint: mean survival time, dose: 240.0 mg/kg/injection, schedule: Q03HX024 (ip), vehicle: saline with Tween-80) was 142 and 143 % of control; the T/C (T/C endpoint: mean survival time, dose: 300.0 mg/kg/injection, schedule: Q03HX024 (ip), vehicle: saline with Tween-80) is 145 % of control; the T/C (T/C endpoint: mean survival time, dose: 400.0 mg/kg/injection, schedule: Q01DX009 (ip), vehicle: carboxymethylcellulose (CMC)) is 128 % of control. Moreover, the T/C runs as follows: under setting [4], 135 % of control; (T/C endpoint: mean survival time, dose: 400.0 mg/kg/injection, schedule: Q03HX024 (ip), vehicle: saline with Tween-80) 133 % of control; (T/C endpoint: mean survival time, dose: 600.0 mg/kg/injection, schedule: Q01DX009 (ip), vehicle: carboxymethylcellulose (CMC)) 126 % of control; (T/C endpoint: mean survival time, dose: 600.0 mg/kg/injection, schedule: Q01DX009 (ip), vehicle: saline with Tween-80) 132 % of control.

Take `CCN1CC(C)(C)N(C(=O)c2ccccc2)CC1(C)C`: the survivor count is 2 of 4 (T/C endpoint: mean survival time, dose: 100.0 mg/kg/injection, schedule: Q01DX001 (ip), vehicle: carboxymethylcellulose (CMC)); 1 of 4 (T/C endpoint: mean survival time, dose: 200.0 mg/kg/injection, schedule: Q01DX001 (ip), vehicle: carboxymethylcellulose (CMC)); 1 of 4 (T/C endpoint: mean survival time, dose: 400.0 mg/kg/injection, schedule: Q01DX001 (ip), vehicle: carboxymethylcellulose (CMC)).

With `CC[N+](CC)(CC)CCCC[P+](CC)(CC)CC`, the survivor count by setting is: (T/C endpoint: mean survival time, dose: 100.0 mg/kg/injection, schedule: Q04DX003 (ip), vehicle: saline) 2 of 6; (T/C endpoint: mean survival time, dose: 200.0 mg/kg/injection, schedule: Q04DX003 (ip), vehicle: saline) 0 of 6; under setting [8], 0 of 6.

On to `O=C(Nc1c(Oc2ccc(Cl)cc2)ccc(Cl)c1S(=O)(=O)O)Nc1c(Oc2ccc(Cl)cc2)ccc(Cl)c1S(=O)(=O)O`, for which the survivor count is 6 of 6 (T/C endpoint: mean survival time, dose: 200.0 mg/kg/injection, schedule: Q01DX001 (ip), vehicle: acetone) and 0 of 6 under setting [8].
